# Measured values: PubChem BioAssay AID651595 (National Center for Advancing Translational Sciences (NCATS), 2012)
# The whole screen tested about 1,100 compounds, of which fewer than 10 were called active. Another 6% or so got no clear call; they are omitted. Calls follow the shape of the dose curve; as a rule, active = well fitted cell-killing curve with a large enough effect; inconclusive = small, poorly fitted or top-dose-only effect; inactive = flat fitted curve, though single readings scatter. Some of the results follow.
# Experiment: qHTS of Nrf2 Activators: Hit Validation in Cytotox Assay;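 also: compound exposure lasted 24 hours before the ATP readout; 0% is about no effect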
# Details: Cell viability counter-screen for Nrf2 activator hits; series mostly up to 46.1 µM; activity change, negative = cytotoxicity: at the top concentration
# In short: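 Intracellular ATP measured with CellTiter-Glo luminescence (30 min, room temperature) as a viability read-out. Cells: AREc32_fluc, cultured overnight before 24 h compound exposure at 7 concentrations, 37 °C; activity here marks cytotoxicity.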
row,SMILES,"activity change, negative = cytotoxicity"
1,O=C1CSC(=S)N1Cc1cccnc1,inactive: 0.666%
2,COC(=O)c1sccc1NC(=O)Nc1ccc(Cl)c(Cl)c1,inactive: 1.57%
3,COC(=O)c1ccccc1NC(=O)c1cc(-c2ccco2)on1,inactive: 5.61%
4,Cc1cc(C)c2c(NC(=S)NC(=O)c3ccccc3)nn(C)c2n1,inactive: -1.81%
5,O=C(O)c1ccc(-n2ncc(Cl)c(Cl)c2=O)cc1,inactive: 4.8%
6,FC(F)(F)c1cc(-c2cccs2)nc(NCc2ccco2)n1,inactive: 7.21%
7,COc1ccc(OC)c(/C=C(\C#N)c2nc(-c3ccc(F)cc3)cs2)c1,inactive: 5.65%
8,CC(=O)Nc1ccc(O)c(-c2nc3ccccc3s2)c1,inactive: 3.1%
9,COc1cccc(NC(=O)c2nn(C)cc2Br)c1,inactive: 6.86%
10,COc1cc(/C=N/Nc2ccccn2)cc(OC)c1O,inactive: 7.25%
11,COc1ccc(C(C)=O)cc1OCc1ccccc1,inactive: 1.35%
12,COc1ccc(N2C(=O)/C(=C\c3ccco3)N=C2SCC(N)=O)cc1Cl,inactive: 4.38%
13,O=C(NN=Cc1cccc([N+](=O)[O-])c1)c1cccc2ccccc12,inactive: 3.2%
14,COc1cc(C=C(c2nc3ccccc3s2)c2nc3ccccc3s2)ccc1O,inactive: 0.894%
15,O=C(CSc1ccc(-c2ccco2)nn1)N1CCCC1,inactive: 3.86%
16,Cc1ccc2[nH]c(=O)c3cc(C(=O)N(C)Cc4ccco4)sc3c2c1,inactive: -26%
17,CNS(=O)(=O)c1ccc2nc(NC(=O)/C=C/c3ccco3)sc2c1,inactive: 3.7%
18,COc1ccc(N2CCCC2)c(NC(=O)c2ccc([N+](=O)[O-])o2)c1,inactive: -1.03%
19,Cc1ccc(Cn2c(/C=C/c3ccco3)nc3ccccc32)cc1,inactive: -21.8%
20,COc1ccc(Nc2nc(C)nc3sc4c(c23)CCC4)cc1O,inactive: 4.74%
21,O=c1cc(/C=C/c2ccccc2)oc2ccccc12,inactive: -7.87%
22,O=C(Nc1ccc(F)cc1F)c1cc(-c2ccco2)nc2ccccc12,inactive: -3.36%
23,Cc1ccc(Sc2cnn(-c3ccccc3)c(=O)c2Cl)cc1,inactive: -3.76%
24,COc1ccccc1-c1cc(C(F)(F)F)nc(S(=O)(=O)CCCC(=O)NCc2ccc(F)cc2)n1,inactive: -11.9%

row,SMILES,"activity change, negative = cytotoxicity"
1,Cc1nc([N+](=O)[O-])c(Br)n1Cc1ccccc1,inactive: 4.95%
2,C=C1C2=C(C(=O)N1OC)[C@@H](O)[C@@](C)(O)[C@@H](CCCCC)O2,inactive: 1.75%
3,O=C(Nc1nnc(-c2cccs2)s1)c1cccc(F)c1,inactive: 7.96%
4,O=C(Nc1c(Br)cc2c(c1Br)Cc1ccccc1-2)C(F)(F)F,inactive: -1.7%
5,Cn1nc(C(=O)Nc2c(-c3ccccc3)nc3sccn23)c2ccccc2c1=O,inactive: 0.618%
6,Cc1ccc(C(=O)Nc2nc(-c3ccco3)c(-c3ccco3)s2)o1,inactive: -1.39%
7,Cc1ccc(Nc2nc(C(N)=O)c(NC(=O)c3ccccc3Br)s2)cc1,inactive: 5.73%
8,O=c1oc2ccc(Cl)cc2nc1/C=C(\O)c1ccco1,inactive: 1.02%
9,c1ccc(N/N=C2\CCCc3ccccc32)nc1,inactive: 8.99%
10,Brc1ccccc1C1N=C(c2ccccc2)NO1 (stereo not drawn),inactive: 9.2%
11,CCN1CCN(c2sc(S(C)(=O)=O)nc2S(=O)(=O)c2ccc(Cl)cc2)CC1,inactive: 2.42%
12,CCc1cc2c(NCc3ccco3)ncnc2s1,inactive: -10.3%
13,O=c1oc2ccccc2cc1-c1nc(-c2cccs2)cs1,inactive: 2.24%
14,COc1c(C(=O)Nc2nnc(C3CC3)s2)csc1Cl,inactive: 6.48%
15,Cc1nc(NC(=O)c2ccc(Br)o2)ccc1Br,inactive: -2.17%
16,COC(CN(C(=O)CCl)C(C(=O)NC1CCCCC1)c1ccccc1C)OC (stereo not drawn),inactive: 10.4%
17,CC(=O)NCCNc1nc2cc(-c3cscc3C)sc2c(=O)n1C,inactive: 7.29%
18,Cc1cc(NCc2ccco2)n2c(nc3ccccc32)c1C#N,inactive: 4.15%
19,Cc1cc(NC(=S)NC(=O)c2ccco2)c2ccccc2n1,inactive: 12.7%
20,O=C(c1ccc(S(=O)(=O)Cc2cc(F)ccc2F)c([N+](=O)[O-])c1)N1CCCC1,inactive: -1.28%
21,COC(=O)c1ccccc1NC(=O)c1cccs1,inactive: 1.6%
22,COC(=O)c1c(NC(=O)/C=C/c2ccco2)sc2c1CCC2,inactive: 4.26%
23,O=[N+]([O-])c1cccc2ccc(/C=C/c3cccc(Br)c3)nc12,inactive: -2.52%
24,Nc1c(C(=O)C2CC2)sc2nc(-c3cccs3)cc(C(F)(F)F)c12,inactive: -0.311%

row,SMILES,"activity change, negative = cytotoxicity"
1,O=C(Nc1cccc([N+](=O)[O-])c1)Nc1cccs1,inactive: 9.78%
2,Cc1nn(-c2ccc3ccccc3c2)c(=O)c2ccccc12,inactive: 4.52%
3,Cc1ccc(C)c(NC(=O)COC(=O)c2cc(=O)c3ccccc3o2)c1,inactive: -5.65%
4,O=C1Nc2ccccc2/C1=C/c1ccccc1Cl,inactive: 1.16%
5,Cc1cc(=O)oc2c(C(=O)/C=C/c3ccccc3)c(O)ccc12,inactive: -0.125%
6,COc1ccccc1CC1S/C(=N/N=C/c2ccco2)NC1=O (stereo not drawn),inactive: -0.512%
7,O=C(Nc1ccc2nsnc2c1)c1cccs1,inactive: 2.83%
8,C=C1C(=O)[C@]23C[C@H]1CCC2[C@@]1(C)C(C[C@@H]3O)[C@](C)(C(=O)O)CC[C@@H]1O (stereo partly drawn),inactive: 4.89%
9,O=C(CSc1ncnc2c1oc1ccccc12)NCc1ccco1,inactive: -5.91%
10,COC(=O)c1sccc1NC(=O)c1ccc(Br)s1,inactive: -0.27%
11,Cc1csc(NC(=O)Nc2ccccc2[N+](=O)[O-])n1,inactive: -1.39%
12,CC(/C=N/n1c(-c2ccc(Cl)cc2)n[nH]c1=S)=C\c1ccco1,inactive: 8.05%
13,COc1ccc(Br)cc1/C=N/Nc1ccccn1,inactive: 1.96%
14,Cc1cc(Br)cn2c(Cc3ccccc3)c(-c3ccco3)nc12,inactive: -14%
15,O=C(/C=C/Nc1ccc(F)cc1)c1cccs1,inactive: 0.227%
16,O=C1CC(c2ccco2)CC(O)=C1C=Nc1cc(Cl)ccc1O (stereo not drawn),inactive: 4.15%
17,Cc1ccc2cccnc2c1NC(=S)NC(=O)c1ccccc1,inactive: 9.5%
18,O=C(CNC(=S)NC(=O)c1ccccc1Br)c1ccccc1,inactive: -3.7%
19,O=[N+]([O-])c1ccc(Cl)cc1N/N=C/c1ccncc1,inactive: 6.03%
20,CC(=O)c1sc(Nc2ccccc2)nc1C,inactive: 6.32%
21,NC(=O)c1cc2c3ccccc3ccn2c1-c1ccccc1,inactive: 5.99%
22,COc1ccc(Cl)cc1C(=O)NC(=S)Nc1nc(C)cc(C)n1,inactive: 1.2%
23,Cc1ccc([N+](=O)[O-])cc1NC(=S)NC(=O)c1ccco1,inactive: 13.8%
24,Cc1cccc(C)c1OCC(=O)N/N=C/C=C/c1ccco1,inactive: 3.17%

row,SMILES,"activity change, negative = cytotoxicity"
1,N#Cc1sc2nc(-c3ccccc3)cc(C(F)(F)F)c2c1N,inactive: 14.9%
2,S=c1[nH]nc(-c2ccncc2)n1/N=C/C=C/c1ccco1,inactive: 6.05%
3,c1ccc(-c2cc3c(-n4cccc4)ncnc3o2)cc1,inactive: 0.0297%
4,Cc1ccc2nsnc2c1NC(=S)NC(=O)c1ccco1,inactive: 20.8%
5,O=C(CSc1ncnc2c1oc1ccccc12)c1cccs1,inactive: 4.02%
6,Oc1ccccc1C1CC(c2cccs2)=NC(c2ccc(Cl)cc2)N1 (stereo not drawn),inactive: 4.41%
7,O=C(O)c1ccc(/C=C2\COc3ccccc3C2=O)cc1,inactive: 5.51%
8,O=[N+]([O-])c1ccc(Cl)c(/C=N/n2c(-c3ccncc3)n[nH]c2=S)c1,inactive: 4.03%
9,O=C(CC(=O)Nc1ccccc1[N+](=O)[O-])Nc1ccccc1[N+](=O)[O-],inactive: 5.85%
10,O=C(Nc1ccc2ccccc2c1)c1ccc(Br)o1,inactive: -0.92%
11,CCCN(C(=O)c1ccco1)c1nnc(-c2ccccc2C)s1,inactive: -3.72%
12,C#CCn1c(=NC(=O)c2cccs2)sc2cccc(OC)c21,inactive: -9.62%
13,Cc1cc(C)n(-c2nc3ccccc3c(=O)n2OCc2ccc(F)cc2)n1,inactive: 3.49%
14,COC(=O)c1cc(S(=O)(=O)C(C)C)c(S(C)=O)s1 (stereo not drawn),inactive: 9.85%
15,O=c1c2ccccc2oc2ccc(-c3ccc4cc[nH]c4c3)cc12,inactive: -20.1%
16,Brc1ccc(-c2csc(N/N=C/c3ccco3)n2)cc1,inactive: 8.79%
17,Cn1c(/C=C/c2cccc([N+](=O)[O-])c2)c([N+](=O)[O-])c(=O)n(C)c1=O,inactive: 14.9%
18,COc1ccc2c(c1)C1=NN(/C(C)=C/C(C)=O)C(c3cccc(F)c3)C1CC2 (stereo not drawn),inactive: 4.09%
19,Nc1nccc(/C=C/c2c(F)cccc2Cl)n1,inactive: 6.06%
20,Cc1cc(C)c2oc(-c3ccc(C)c(NC(=O)/C=C/c4ccco4)c3)nc2c1,inactive: -25.6%
21,O=C(NN/C(=N/S(=O)(=O)c1ccc(Cl)cc1)c1ccccc1)c1cccc(Cl)c1,inactive: -13.4%
22,O=C(Nc1cccc2ncccc12)c1ccc(Cl)cc1,inactive: 3.85%
23,Brc1cc(Cc2nnc(-c3ccccc3)o2)c(Br)s1,inactive: 6.39%
24,Nc1ccc2c(Cl)cc(Cl)cc2c1,inactive: -0.182%

row,SMILES,"activity change, negative = cytotoxicity"
1,COC(=O)c1sccc1NC(=O)c1cccc(OC)c1,inactive: -4.2%
2,COC(=O)[C@@]1(Sc2ccc(C)cc2)CC(=O)N(C(=O)/C=C/c2ccccc2)[C@@H]1c1ccccc1,inactive: 9.18%
3,CC(C)Cc1cc(-c2ccco2)c(C#N)c(N)n1,inactive: 8.99%
4,N#Cc1ccc(-c2ccco2)nc1SCc1ccccc1,inactive: -18.2%
5,Cn1c(/N=C(\N)c2ccccc2)nc2ccccc21,inactive: -3.63%
6,N#CC1=C(N)Oc2c(ccc3ccccc23)C1c1ccsc1 (stereo not drawn),inactive: -24.1%
7,Cc1ccccc1/C=C1\C(=O)Nc2ccc(F)cc21,inactive: -10.9%
8,Oc1ccc(Cl)cc1-c1cc(-c2ccco2)[nH]n1,inactive: -5.23%
9,Cc1ccc2c(N)c(C(=O)c3ccccc3)sc2n1,inactive: -0.845%
10,Cc1csc(NC(=S)NC(=O)c2ccccc2)n1,inactive: -0.679%
11,O=C(Nc1cccc(F)c1)c1cc(-c2ccco2)nc2ccccc12,inactive: -0.517%
12,Cc1nn(-c2cccc(C(F)(F)F)c2)c(=O)c2ccccc12,inactive: 0.43%
13,CC(=O)Nc1ccc(N=Nc2ccccc2)cc1[N+](=O)[O-],inactive: -3.62%
14,CCOc1ccccc1NC(=S)NC(=O)c1ccco1,inactive: -1.64%
15,O=C(/C=C/c1ccc(-c2ccccc2[N+](=O)[O-])o1)c1ccc(Br)cc1,inactive: -2.62%
16,C=C(C)CNC(=S)N/N=C(\C)c1ccc(Cl)s1,inactive: -0.577%
17,COc1cc(-c2noc(-c3cccs3)n2)cc(OC)c1OC,inactive: 4.81%
18,CN1C2CCC1/C(=C\c1ccc(F)cc1)C(=O)/C2=C/c1ccc(F)cc1,inactive: -13.6%
19,Cc1cc(CNC(=O)c2cccc([N+](=O)[O-])c2)c2ccccc2n1,inactive: -0.688%
20,c1cncc(-c2nc(NCc3ccco3)c3ccccc3n2)c1,inactive: 4.7%
21,FC(F)(F)c1ccccc1Cc1c(-c2ccccc2)nc2c3ccccc3ccn12,inactive: -6.46%
22,COc1ccc(Cl)cc1NC(=O)c1cc(-c2ccco2)on1,inactive: 10.5%

# Nothing new here: an excerpt of the list.
row,SMILES,"activity change, negative = cytotoxicity"
17,CNS(=O)(=O)c1ccc2nc(NC(=O)/C=C/c3ccco3)sc2c1,inactive: 3.7%
18,COc1ccc(N2CCCC2)c(NC(=O)c2ccc([N+](=O)[O-])o2)c1,inactive: -1.03%
19,Cc1ccc(Cn2c(/C=C/c3ccco3)nc3ccccc32)cc1,inactive: -21.8%
20,COc1ccc(Nc2nc(C)nc3sc4c(c23)CCC4)cc1O,inactive: 4.74%

# Four entries already listed, sorted by molar mass, largest number first:
row,SMILES,"activity change, negative = cytotoxicity"
14,Cc1cc(Br)cn2c(Cc3ccccc3)c(-c3ccco3)nc12,inactive: -14%
16,Cc1ccc2[nH]c(=O)c3cc(C(=O)N(C)Cc4ccco4)sc3c2c1,inactive: -26%
1,COC(=O)c1sccc1NC(=O)c1cccc(OC)c1,inactive: -4.2%
10,Cc1csc(NC(=S)NC(=O)c2ccccc2)n1,inactive: -0.679%
